PubChem BioAssay AID1259308 – NCATS, 2017
This is a random part of about 59,000 reagents. In the full data, about 1,510 (2.6%) got an active call. 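Calls use total luciferase alone and ignore viability, so some active siRNAs may act by altering cell number.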 A number with no mark means an inactive call. The numbers tell different reagents against one gene apart.

Test: 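Knock-downs that increase output of a recombinant reporter protein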 (primary screen)
Cells: human HEK293 embryonic kidney cells stably expressing firefly luciferase (HEK-CMV-Luc2-Hygro)
Knock-down reagent: single siRNA against human genes, 0.8 pmol siRNA per well
Duration: 72 h
Read-out: 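Luciferase light (ONE-Glo) measured on one replicate plate set and viability (CellTiter-Glo) on the other, scaled to a negative control siRNA, with robust z-scores and luciferase per cell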
Direction: total luciferase, z-score and total luciferase, % of control: higher = more reporter protein produced; luciferase per cell, z-score: higher = more reporter output per viable cell; viable cells, % of control: higher = more viable cells
Active means: 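Active when the median/MAD z-score for overall luciferase is greater than 3; a gene was taken forward for validation with new siRNAs if at least two of its three siRNAs passed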
Calls: active = raised luciferase; inactive = no rise

gene symbol	reagent no.	total luciferase, z-score	total luciferase, % of control	luciferase per cell, z-score	viable cells, % of control
SPATA1	1	-0.36	74.7	-0.261	89.5
SPATA1	2	-0.466	72.6	-0.726	98.2
SPATA1	3	1.12	104	1.06	88
LRRC14B	1	-0.273	76.5	-0.489	97.2
LRRC14B	2	4.3 (active)	167	3.18	81
LRRC14B	3	-1.57	50.6	-1.01	73.8
FRMD7	1	0.318	88.2	0.228	92.8
FRMD7	2	1.76	117	1.58	86.1
FRMD7	3	0.186	85.6	0.878	75.9
ZNF428	1	0.777	97.3	1.25	78.2
ZNF428	2	-0.299	75.9	-0.299	91.8
ZNF428	3	0.0766	83.4	0.416	83.5
TIMP4	1	0.477	91.4	-0.41	114
TIMP4	2	-0.962	62.7	-0.901	88.9
TIMP4	3	-0.482	72.3	-0.167	84.4
UTS2B	1	-0.0526	80.8	-0.186	94.9
UTS2B	2	-0.256	76.8	-0.406	95.5
UTS2B	3	0.0911	83.7	-0.128	96.7
CPSF1	1	-1.82	45.7	-0.92	65.1
CPSF1	2	-0.327	75.4	-0.634	99.5
CPSF1	3	-0.664	68.7	1.8	47.8
CRYAA	1	-1.44	53.2	-1.84	96.5
CRYAA	2	-0.571	70.5	-0.352	86.5
CRYAA	3	0.0362	82.6	-0.356	101
WDR24	1	0.464	91.1	1.48	68.9
WDR24	2	1.25	107	0.788	97
WDR24	3	-1.12	59.7	-0.977	86.3
ZNF576	1	0.165	85.2	1.1	71.2
ZNF576	2	-0.0489	80.9	-0.191	95.1
ZNF576	3	-0.0741	80.4	-0.594	105
LINC02913	1	0.599	93.8	0.292	97.1
LINC02913	2	0.476	91.4	0.386	92.2
LINC02913	3	0.215	86.2	0.552	83.3
CD3D	1	1.81	118	1.12	98.1
CD3D	2	0.338	88.6	0.0971	96.5
CD3D	3	-0.065	80.6	-0.308	97.7

3 entries already listed, arranged by “viable cells, % of control”, high to low:
gene symbol	reagent no.	total luciferase, z-score	total luciferase, % of control	luciferase per cell, z-score	viable cells, % of control
FRMD7	1	0.318	88.2	0.228	92.8
LRRC14B	2	4.3 (active)	167	3.18	81
LRRC14B	3	-1.57	50.6	-1.01	73.8

Further reagents follow:
gene symbol	reagent no.	total luciferase, z-score	total luciferase, % of control	luciferase per cell, z-score	viable cells, % of control
GAB4	1	-1.86	44.9	-0.848	62.7
GAB4	2	-0.469	72.6	1	62.3
GAB4	3	0.338	88.6	0.395	89.2
OLR1	1	-1.07	60.5	-0.158	70.5
OLR1	2	0.866	99.1	0.575	95.2
OLR1	3	-1.94	43.3	-1.52	72.1
HTR2A	1	0.701	95.8	0.514	93.5
HTR2A	2	0.698	95.8	0.263	99.9
HTR2A	3	-1.51	51.8	-2.33	107
LOC646938	1	-0.215	77.6	0.109	84.3
LOC646938	2	1.37	109	1.8	75.9
LOC646938	3	1	102	0.884	90.2
BMX	1	-0.991	62.2	-1.49	103
BMX	2	-0.0852	80.2	0.257	83.7
BMX	3	2.35	129	2.99	65.3
USP43	1	-0.543	71.1	-0.69	95.3
USP43	2	1.73	116	1.11	97.1
USP43	3	0.952	101	1.82	69.9
VPREB3	1	1.11	104	0.549	101
VPREB3	2	0.36	89	0.183	94.8
VPREB3	3	0.371	89.3	0.258	93.2
